# Measured values as given in PMC10284700.
# Sequences of proteins named here, by UniProt entry; tags and fusion partners are left off. A change or cut given only in a name is not applied to a line headed by its entry. A line that says so, or that is headed by a name, gives the form on record, which may keep a tag or linker. Residues count along the entry.
# extracellular ligand-binding region (D2–D3 region) of human FGFR1c (P11362, residues 142-366): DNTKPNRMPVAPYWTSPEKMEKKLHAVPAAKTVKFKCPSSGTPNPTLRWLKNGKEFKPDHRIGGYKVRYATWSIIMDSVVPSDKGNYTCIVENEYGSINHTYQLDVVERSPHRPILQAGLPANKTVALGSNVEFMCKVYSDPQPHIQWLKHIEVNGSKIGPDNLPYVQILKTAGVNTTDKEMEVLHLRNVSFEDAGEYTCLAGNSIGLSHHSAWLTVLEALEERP
# full-length FGFR1c A167D/V248D (P11362, form named): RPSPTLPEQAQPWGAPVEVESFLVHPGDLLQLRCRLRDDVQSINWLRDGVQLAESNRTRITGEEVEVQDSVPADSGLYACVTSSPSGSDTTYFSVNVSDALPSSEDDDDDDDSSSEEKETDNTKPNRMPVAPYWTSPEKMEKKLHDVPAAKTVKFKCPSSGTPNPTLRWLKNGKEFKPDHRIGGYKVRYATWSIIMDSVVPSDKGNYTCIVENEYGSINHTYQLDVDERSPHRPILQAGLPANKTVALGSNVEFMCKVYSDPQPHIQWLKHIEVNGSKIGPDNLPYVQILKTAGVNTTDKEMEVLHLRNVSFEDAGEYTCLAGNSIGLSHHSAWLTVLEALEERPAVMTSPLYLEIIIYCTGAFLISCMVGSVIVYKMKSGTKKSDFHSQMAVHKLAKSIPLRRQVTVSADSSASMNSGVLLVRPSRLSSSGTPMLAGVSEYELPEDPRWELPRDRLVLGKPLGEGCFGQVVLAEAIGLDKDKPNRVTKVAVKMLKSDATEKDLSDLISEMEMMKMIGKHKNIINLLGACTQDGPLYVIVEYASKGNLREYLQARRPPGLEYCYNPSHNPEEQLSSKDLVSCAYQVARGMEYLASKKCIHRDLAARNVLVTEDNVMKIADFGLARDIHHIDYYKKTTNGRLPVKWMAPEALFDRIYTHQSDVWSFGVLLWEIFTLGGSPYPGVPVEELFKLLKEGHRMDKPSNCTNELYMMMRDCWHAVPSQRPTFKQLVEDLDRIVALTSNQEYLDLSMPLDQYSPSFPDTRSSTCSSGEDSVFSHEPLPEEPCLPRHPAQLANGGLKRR
# full-length FGFR1c I203E/S223E (P11362, form named): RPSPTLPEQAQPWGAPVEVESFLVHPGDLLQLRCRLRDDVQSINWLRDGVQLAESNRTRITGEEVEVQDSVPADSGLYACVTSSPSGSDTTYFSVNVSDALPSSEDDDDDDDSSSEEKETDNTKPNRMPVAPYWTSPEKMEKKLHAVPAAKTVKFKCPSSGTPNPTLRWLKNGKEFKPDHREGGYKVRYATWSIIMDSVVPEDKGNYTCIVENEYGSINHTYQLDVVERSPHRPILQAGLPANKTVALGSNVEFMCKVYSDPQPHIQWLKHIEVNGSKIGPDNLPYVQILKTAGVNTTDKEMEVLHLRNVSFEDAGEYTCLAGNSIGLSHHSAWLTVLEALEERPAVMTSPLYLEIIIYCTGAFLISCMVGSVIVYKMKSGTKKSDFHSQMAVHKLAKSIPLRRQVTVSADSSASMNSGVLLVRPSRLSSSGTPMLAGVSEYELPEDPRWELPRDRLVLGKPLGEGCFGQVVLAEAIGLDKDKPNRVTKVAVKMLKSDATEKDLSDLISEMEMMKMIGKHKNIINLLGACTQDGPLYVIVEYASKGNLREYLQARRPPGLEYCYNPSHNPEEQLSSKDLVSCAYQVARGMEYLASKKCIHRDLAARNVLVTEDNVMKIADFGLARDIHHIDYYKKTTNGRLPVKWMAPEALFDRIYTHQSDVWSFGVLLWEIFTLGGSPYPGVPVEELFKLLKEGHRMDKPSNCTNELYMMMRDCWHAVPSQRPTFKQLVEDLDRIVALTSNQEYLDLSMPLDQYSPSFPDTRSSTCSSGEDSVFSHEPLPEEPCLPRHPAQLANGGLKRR
# These are yes or no findings as the source states them, for the method shown. For some of these results: Binding seen in cells or lysates may run through a third protein. Some results given as binding are weak or reduced against the parent protein; the word gives no strength.
# Experiments:
# [1] = molecular target: T1, entire extracellular domain of human αKlotho (residues Met1 to Ser981) (human) (UniProt Q9UEF7); test: SEC-MALS; SEC-purified FGF23–FGFR1c–αKlotho–HS quaternary complex, 50 μl at 1.5 mg/ml, Superdex 200 10/300 GL, 25 mM HEPES pH 7.5, 150 mM NaCl, ambient temperature; both purified
# T1 sequence: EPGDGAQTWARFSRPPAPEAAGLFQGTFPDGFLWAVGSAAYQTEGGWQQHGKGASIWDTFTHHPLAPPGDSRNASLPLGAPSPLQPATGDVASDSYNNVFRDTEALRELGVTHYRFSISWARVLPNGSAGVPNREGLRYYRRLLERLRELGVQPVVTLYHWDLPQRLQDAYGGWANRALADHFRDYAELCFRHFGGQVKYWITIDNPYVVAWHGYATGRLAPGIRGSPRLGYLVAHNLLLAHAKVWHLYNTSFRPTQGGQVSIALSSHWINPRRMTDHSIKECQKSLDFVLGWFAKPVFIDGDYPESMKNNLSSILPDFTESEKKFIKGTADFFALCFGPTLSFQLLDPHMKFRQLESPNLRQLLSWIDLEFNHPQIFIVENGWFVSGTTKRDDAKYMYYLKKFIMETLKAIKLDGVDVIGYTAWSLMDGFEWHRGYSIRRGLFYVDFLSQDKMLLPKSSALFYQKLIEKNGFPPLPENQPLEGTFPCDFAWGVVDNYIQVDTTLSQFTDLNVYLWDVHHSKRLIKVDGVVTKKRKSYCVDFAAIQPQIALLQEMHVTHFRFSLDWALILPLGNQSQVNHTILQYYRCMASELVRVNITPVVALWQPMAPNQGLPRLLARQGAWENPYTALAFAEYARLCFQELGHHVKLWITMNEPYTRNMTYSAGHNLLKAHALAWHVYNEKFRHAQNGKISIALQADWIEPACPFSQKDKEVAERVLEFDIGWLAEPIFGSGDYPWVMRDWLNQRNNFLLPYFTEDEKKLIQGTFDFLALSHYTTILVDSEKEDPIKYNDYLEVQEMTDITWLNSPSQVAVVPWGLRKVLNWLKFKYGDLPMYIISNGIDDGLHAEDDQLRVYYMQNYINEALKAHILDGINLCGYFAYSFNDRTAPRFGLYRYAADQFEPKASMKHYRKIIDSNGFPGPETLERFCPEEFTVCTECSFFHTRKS
# [2] = molecular target: T1, entire extracellular domain of human αKlotho (residues Met1 to Ser981) (human); test: cryo-EM structure; FGF23, one FGFR ectodomain, αKlotho^ecto and heparin dodecasaccharide (HO12) mixed 1:1:1:1; complex isolated on Superdex 200 in 25 mM HEPES pH 7.5, 100 mM NaCl; peak fractions vitrified; both purified
# [3] = molecular target: full-length FGFR1c A167D/V248D (human) (UniProt P11362); test: proximity ligation; FGFR with FGFR on the surface of stably transfected L6 cells (endogenous HSPGs); serum starved, costimulated with FGF23 and αKlotho^ecto for 20 min, fixed; two primary antibodies from two species for each FGFR isoform, Duolink PLA kit
# [4] = molecular target: full-length FGFR1c I203E/S223E (human) (UniProt P11362); test: as above
substance,measurement,setting,value
extracellular ligand-binding region (D2–D3 region) of human FGFR1c (from UniProt P11362 142-366) (domain or fragment),binding,[1],binds
same,binding,[2],binds
full-length FGFR1c A167D/V248D (from UniProt P11362 22-822) (receptor),binding,[3],no binding
full-length FGFR1c I203E/S223E (from UniProt P11362 22-822) (receptor),binding,[4],no binding
